Assay results: doi:10.1101/2025.05.20.655083
These are yes or no findings as the source states them, for the method shown. A result given as binding can be weak or reduced; the word gives no strength.

Legend:
[1] = target: T1, BSB PyV-LTA;NLS peptide (Black Sea Bass polyomavirus large tumor antigen residues 660-683) (Black Sea Bass polyomavirus); experiment: fluorescence polarisation
T1 sequence (peptide, Ahx-FITC on the N-terminus): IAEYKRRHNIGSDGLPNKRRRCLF

[2] = target: T1, BSB PyV-LTA;NLS peptide (Black Sea Bass polyomavirus large tumor antigen residues 660-683) (Black Sea Bass polyomavirus); experiment: native gel or EMSA

human importin α1 ΔIBB (domain or fragment)
binding [1]: binds
binding [2]: binds

human importin α3 ΔIBB (domain or fragment)
binding [1]: binds
binding [2]: binds

human importin α5 ΔIBB (domain or fragment)
binding [1]: binds
binding [2]: binds

human importin α7 ΔIBB (domain or fragment)
binding [1]: binds
binding [2]: binds
